{"source": "PubChem BioAssay AID1259308 (NCATS, 2017)", "test": "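Knock-downs that increase output of a recombinant reporter protein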 (primary screen)", "cell system": "human HEK293 embryonic kidney cells stably expressing firefly luciferase (HEK-CMV-Luc2-Hygro)", "knock-down reagent": "single siRNA against human genes, 0.8 pmol siRNA per well", "timing": "72 h", "read-out": "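Luciferase light (ONE-Glo) measured on one replicate plate set and viability (CellTiter-Glo) on the other, scaled to a negative control siRNA, with robust z-scores and luciferase per cell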", "direction": "total luciferase, z-score: higher = more reporter protein produced", "hit rule": "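Active when the median/MAD z-score for overall luciferase is greater than 3; a gene was taken forward for validation with new siRNAs if at least two of its three siRNAs passed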", "calls": "active = raised luciferase; inactive = no rise", "note": "Shown is one part, drawn at random, of about 59,000 deposited reagents. About 1,510 of all reagents (2.6%) were called active. 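Calls use total luciferase alone and ignore viability, so some active siRNAs may act by altering cell number.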 The numbers tell different reagents against one gene apart. Not all columns of the deposit are shown."}
{"gene":"ALG1L1P","reagent":1,"total luciferase, z-score":-0.625,"call":"inactive"}
{"gene":"ALG1L1P","reagent":2,"total luciferase, z-score":2.09,"call":"inactive"}
{"gene":"ALG1L1P","reagent":3,"total luciferase, z-score":0.0374,"call":"inactive"}
{"gene":"SESN2","reagent":1,"total luciferase, z-score":0.672,"call":"inactive"}
{"gene":"SESN2","reagent":2,"total luciferase, z-score":4.08,"call":"active"}
{"gene":"SESN2","reagent":3,"total luciferase, z-score":1.19,"call":"inactive"}
{"gene":"DNAJB2","reagent":1,"total luciferase, z-score":-0.434,"call":"inactive"}
{"gene":"DNAJB2","reagent":2,"total luciferase, z-score":1.23,"call":"inactive"}
{"gene":"DNAJB2","reagent":3,"total luciferase, z-score":0.0842,"call":"inactive"}
{"gene":"KIF1A","reagent":1,"total luciferase, z-score":2.32,"call":"inactive"}
{"gene":"KIF1A","reagent":2,"total luciferase, z-score":0.0767,"call":"inactive"}
{"gene":"KIF1A","reagent":3,"total luciferase, z-score":0.658,"call":"inactive"}
{"gene":"RAB7B","reagent":1,"total luciferase, z-score":-0.294,"call":"inactive"}
{"gene":"RAB7B","reagent":2,"total luciferase, z-score":-0.611,"call":"inactive"}
{"gene":"RAB7B","reagent":3,"total luciferase, z-score":0.987,"call":"inactive"}
{"gene":"TRAPPC6B","reagent":1,"total luciferase, z-score":1.77,"call":"inactive"}
{"gene":"TRAPPC6B","reagent":2,"total luciferase, z-score":-0.154,"call":"inactive"}
{"gene":"TRAPPC6B","reagent":3,"total luciferase, z-score":1.32,"call":"inactive"}
{"gene":"ZNF890P","reagent":1,"total luciferase, z-score":-0.734,"call":"inactive"}
{"gene":"ZNF890P","reagent":2,"total luciferase, z-score":0.167,"call":"inactive"}
{"gene":"ZNF890P","reagent":3,"total luciferase, z-score":0.273,"call":"inactive"}
{"gene":"SNF8","reagent":1,"total luciferase, z-score":-0.632,"call":"inactive"}
{"gene":"SNF8","reagent":2,"total luciferase, z-score":1.88,"call":"inactive"}
{"gene":"SNF8","reagent":3,"total luciferase, z-score":-0.872,"call":"inactive"}
{"gene":"CAPN11","reagent":1,"total luciferase, z-score":-0.132,"call":"inactive"}
{"gene":"CAPN11","reagent":2,"total luciferase, z-score":-0.241,"call":"inactive"}
{"gene":"CAPN11","reagent":3,"total luciferase, z-score":-1.31,"call":"inactive"}
{"gene":"CTSLP3","reagent":1,"total luciferase, z-score":0.346,"call":"inactive"}
{"gene":"CTSLP3","reagent":2,"total luciferase, z-score":0.629,"call":"inactive"}
{"gene":"CTSLP3","reagent":3,"total luciferase, z-score":-0.462,"call":"inactive"}
{"gene":"MSMB","reagent":1,"total luciferase, z-score":-0.529,"call":"inactive"}
{"gene":"MSMB","reagent":2,"total luciferase, z-score":0.196,"call":"inactive"}
{"gene":"MSMB","reagent":3,"total luciferase, z-score":-0.202,"call":"inactive"}
